Publication PMC7011920, “Synthesis and biological evaluation of stilbene derivatives coupled to NO donors as potential antidiabetic agents” (Journal of Enzyme Inhibition and Medicinal Chemistry, 2018)

Assay: In vitro NO releasing property (detection of nitrite, Griess reagent)
Details: percentage of NO released relative to theoretical maximum of 1 mol NO/mol compound, 5 mM L-cysteine, pH 7.4, mean ± SD (n = 3)

Row | SMILES | NO releasing activity (%)
1 | COc1cc(/C=C/c2ccc(OCCCCO[N+](=O)[O-])cc2)cc(OC)c1 [3b] | 1.359 ± 0.034 %
2 | COc1cc(/C=C/c2ccc(OCCO[N+](=O)[O-])cc2)cc(OC)c1 [3a, O4′-Nitrooxyethyl pterostilbene] | 1.029 ± 0.009 %
3 | COc1cc(/C=C/c2ccc(OCCCCCCO[N+](=O)[O-])cc2)cc(OC)c1 [3c] | 1.391 ± 0.050 %
